Results are given in words; binding and its absence hold for the method and conditions named. Binding seen in cells or lysates may run through a third protein. Some binding calls cover weakened binding; strength is not graded here. Where a sequence is shown, tags or fusion partners need not be part of it.
Molecular target: T1, SnaB, small subunit of pristinamycin IIA synthase of Streptomyces pristinaespiralis SP92 (Streptomyces pristinaespiralis SP92) (UniProt P54993)
T1 sequence: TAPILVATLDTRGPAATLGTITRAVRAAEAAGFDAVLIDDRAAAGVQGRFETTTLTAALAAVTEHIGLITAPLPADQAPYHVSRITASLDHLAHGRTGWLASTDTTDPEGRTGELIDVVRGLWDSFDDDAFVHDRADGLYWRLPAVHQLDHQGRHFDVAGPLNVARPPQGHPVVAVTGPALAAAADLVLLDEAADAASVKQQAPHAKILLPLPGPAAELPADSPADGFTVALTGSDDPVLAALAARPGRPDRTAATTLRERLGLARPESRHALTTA
Assay: co-purification through ammonium sulphate, MonoQ, Phenyl Superose, Bio-Sil SEC 250 gel permeation (activity peak at 77,000) and MonoQ, then SDS-PAGE

B1: SnaA, large subunit of pristinamycin IIA synthase of Streptomyces pristinaespiralis SP92 (enzyme)
chain: TAPRRRITLAGIIDGPGGHVAAWRHPATKADAQLDFEFHRDNARTLERGLFDAVFIADIVAVWGTRLDSLCRTSRTEHFEPLTLLAAYAAVTEHIGLCATATTTYNEPAHIAARFASLDHLSGGRAGWNVVTSAAPWESANFGFPEHLEHGKRYERAEEFIDVVKKLWDSDGRPVDHRGTHFEAPGPLGIARPPQGRPVIIQAGSSPVGREFAARHAEVIFTRHNRLSDAQDFYGDLKARVARHGRDPEKVLVWPTLAPIVAATDTEAKQRLQELQDLTHDHVALRTLQDHLGDVDLSAYPIDGPVPDIPYTNQSQSTTERLIGLARRENLSIRELALRLMGDIVVGTPEQLADHMESWFTGRGADGFNIDFPYLPGSADDFVDHVVPELQRRGLYRSGYEGTTLRANLGIDAPRKAGAAA
binding: binds
